According to article PMC12589134:
These are yes or no findings as the source states them, for the method shown. Binding seen in cells or lysates may run through a third protein. Some results given as binding are weak or reduced against the parent protein; the word gives no strength. Where a sequence is shown, tags or fusion partners need not be part of it.

Molecular target: T1, mouse Jak2-R1063H-Flag (mouse) (UniProt Q62120)
T1 sequence: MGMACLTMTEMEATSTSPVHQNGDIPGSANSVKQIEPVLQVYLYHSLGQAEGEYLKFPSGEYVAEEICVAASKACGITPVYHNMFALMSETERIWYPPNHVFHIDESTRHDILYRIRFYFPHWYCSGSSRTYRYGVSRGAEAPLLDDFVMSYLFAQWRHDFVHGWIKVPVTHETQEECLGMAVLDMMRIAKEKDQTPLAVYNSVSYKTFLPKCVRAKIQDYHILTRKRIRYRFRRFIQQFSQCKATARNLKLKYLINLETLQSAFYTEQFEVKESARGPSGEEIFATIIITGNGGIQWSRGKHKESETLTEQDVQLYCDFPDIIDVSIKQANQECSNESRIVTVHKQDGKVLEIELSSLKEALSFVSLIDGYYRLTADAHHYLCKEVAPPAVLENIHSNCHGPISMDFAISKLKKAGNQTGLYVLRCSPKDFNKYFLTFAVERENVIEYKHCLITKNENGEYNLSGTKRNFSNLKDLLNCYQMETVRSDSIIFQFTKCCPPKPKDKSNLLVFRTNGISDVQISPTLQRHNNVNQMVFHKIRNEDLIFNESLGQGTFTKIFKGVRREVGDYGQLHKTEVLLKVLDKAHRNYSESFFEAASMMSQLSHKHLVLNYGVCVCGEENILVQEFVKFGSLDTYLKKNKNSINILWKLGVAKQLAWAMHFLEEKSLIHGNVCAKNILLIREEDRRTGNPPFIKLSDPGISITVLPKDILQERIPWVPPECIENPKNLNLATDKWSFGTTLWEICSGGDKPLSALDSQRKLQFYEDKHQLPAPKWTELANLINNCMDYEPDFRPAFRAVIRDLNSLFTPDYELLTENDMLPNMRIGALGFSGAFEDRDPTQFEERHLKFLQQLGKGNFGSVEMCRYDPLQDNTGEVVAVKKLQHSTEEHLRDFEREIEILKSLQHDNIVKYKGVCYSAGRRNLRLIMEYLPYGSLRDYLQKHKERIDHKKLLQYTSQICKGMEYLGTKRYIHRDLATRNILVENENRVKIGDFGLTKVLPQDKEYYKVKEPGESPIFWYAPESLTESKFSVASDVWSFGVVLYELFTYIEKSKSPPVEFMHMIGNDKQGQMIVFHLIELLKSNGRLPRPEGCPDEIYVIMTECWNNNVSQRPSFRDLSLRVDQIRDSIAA
Assay: co-IP; unstimulated HEK293 cells stably expressing the tagged receptor, Flag-tagged Jak2/JAK2 transiently expressed; co-immunoprecipitation with Flag/V5 antibody, immunoblot, band intensity quantified by ImageJ

- binding: binds
B1: mouse V5-tagged Epor (receptor, UniProt P14753 25-507)
chain: APSPSLPDPKFESKAALLASRGSEELLCFTQRLEDLVCFWEEAASSGMDFNYSFSYQLEGESRKSCSLHQAPTVRGSVRFWCSLPTADTSSFVPLELQVTEASGSPRYHRIIHINEVVLLDAPAGLLARRAEEGSHVVLRWLPPPGAPMTTHIRYEVDVSAGNRAGGTQRVEVLEGRTECVLSNLRGGTRYTFAVRARMAEPSFSGFWSAWSEPASLLTASDLDPLILTLSLILVLISLLLTVLALLSHRRTLQQKIWPGIPSPESEFEGLFTTHKGNFQLWLLQRDGCLWWSPGSSFPEDPPAHLEVLSEPRWAVTQAGDPGADDEGPLLEPVGSEHAQDTYLVLDKWLLPRTPCSENLSGPGGSVDPVTMDEASETSSCPSDLASKPRPEGTSPSSFEYTILDPSSQLLCPRALPPELPPTPPHLKYLYLVVSDSGISTDYSSGGSQGVHGDSSDGPYSHPYENSLVPDSEPLHPGYVACS
